In patent publication US10004786B2 (Zealand Pharma A/S, priority 2009, dated 2018):

Experiment: general procedure: Fmoc solid-phase peptide synthesis; TentaGel S Ram resin (1 g; 0.25 mmol/g)
Conditions: whole synthesis, analytical HPLC

With “H-H-Aib-QGTFTSDYSKYLDS-K(Hexadecanoyl-γ-Glu)-AARDFVAWLLRA-NH2” as the substance, how does the “final HPLC purity” value read?
Its value is 97%.
